Source: patent publication US7732398B2, “Medicinal uses of mu-opioid receptor agonists” (Cornell Research Foundation, Inc., priority 2000, dated 2010)

Key:
[1] = tested on: Male Sprague-Dawley rats; test: Rat tail-flick test, antinociceptive effects after intrathecal administration; assay type: in vivo; conditions: antinociceptive potency relative to intrathecal morphine (=1)
Experimental: Male Sprague-Dawley rats (300-350 g) were used.
Under light halothane anesthesia a needle connected to a Hamilton syringe was inserted percutaneously between spinal processes of the third and fourth lumbar vertebrae into the intrathecal space. A quick flick of the tail was observed when the tip of the needle entered the intrathecal space and was used as an indicator of successful puncture (Mestre et al., 1994). Drugs were delivered in a volume of 5 μl.
Intrathecal catheterization was performed at least two days prior to the experiment as previously described (Shimoyama et al., 1996). […]
To assess the antinociceptive effects of the opioids, the tail-flick test was used. […] The time from the onset of the heat to the withdrawal of the tail (tail-flick latency) was measured. […] Subsequent response latencies were determined at designated time points. […]
Cumulative dose-response studies were performed for each drug using the tail-flick test (Shimoyama et al., 1996), (Shimoyama et al., 1997). […] The response latency after each dosing was determined at peak analgesia, which was 15, 30 and 45 min after the administration of the MOR, DALDA and [Dmt^1]DALDA, respectively (based on preliminary studies). […] The percentage of analgesic responders in the group of rats for each cumulative dose was calculated, and a cumulative dose-response curve was constructed. […]

[2] = tested on: [^3H]NE uptake in spinal cord synaptosomes; test: Inhibition of [3H]NE uptake in spinal cord synaptosomes; assay type: biochemical, guinea pig; conditions: 95% confidence interval in brackets
Experimental: Adult female Hartley strain guinea pigs (440-550 g) were decapitated and the spinal cords taken out. A crude synaptosomal (P2) fraction was prepared as described previously (Lonart and Johnson 1995; Li 2000). Briefly, the tissue was minced and homogenized in 10 ml of ice-cold 0.32 M sucrose solution (pH7.4) with a Thomas B075 homogenizor, clearance 0.13-0.18 mm. The homogenate was centrifuged for 10 min at 1,200×g in a Megafuge centrifuge at 4° C. The resulting supernatant was then centrifuged at 20,000×g for 20 min in JA-17 rotor of a Beckman J2-21 centrifuge at 4° C. and the supernatant discarded. The pellet (P2) was gently resuspended in aerated (100% O2) ice-cold buffer containing (in mM):HEPES 20, NaCl 140, KCl 5, NaHCO3 5, MgCl2 1, Na2HPO4 1.2, CaCl2 1.2 and glucose 10, pH 7.4, and centrifuge at 3,000×g for 12 min in a Megafuge at 4° C. Pour out the supernatant. […] Protein concentration was determined by the method of Bradford (1976) at 595 nm using bovine serum albumin as a standard in a Spectra Max plus machine (Molecular Device Co. Sunnyvale, Calif.)
Add buffer 0.6 ml in tubes, synaptosome solution 0.2 ml (about 100 μg), then varying concentration of drug 0.1 ml (each concentration performed in triplicate), put in water bath for pre-incubation for 10 min at 37° C. […] Filter-bound radioactivity was counted by liquid scintillation counter (Beckman LS6001). […]

## CN1CC[C@]23c4c5ccc(O)c4O[C@H]2[C@@H](O)C=C[C@H]3[C@H]1C5 [Morphine, morphine, reference compound]
[1]
  Potency Ratios: 1
[2]
  IC50: 870 µM
